The record followed here is paper PMC2944038 (Biochemical pharmacology, 2010).

Data set [1] addresses T1, human apical sodium-dependent bile acid transporter (ASBT; SLC10A2) (Homo sapiens, UniProt Q12908).
T1 sequence (Q12908 1-348): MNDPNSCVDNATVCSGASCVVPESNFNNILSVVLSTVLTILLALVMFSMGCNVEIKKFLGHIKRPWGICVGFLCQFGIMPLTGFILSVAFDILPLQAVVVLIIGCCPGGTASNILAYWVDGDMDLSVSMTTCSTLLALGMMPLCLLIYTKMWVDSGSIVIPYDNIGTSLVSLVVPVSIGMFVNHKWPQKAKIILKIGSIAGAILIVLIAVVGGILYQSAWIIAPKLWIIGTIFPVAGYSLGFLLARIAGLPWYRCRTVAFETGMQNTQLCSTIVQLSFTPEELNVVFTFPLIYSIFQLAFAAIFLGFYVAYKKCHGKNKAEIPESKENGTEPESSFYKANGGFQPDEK
The data set is described as follows: ASBT inhibition: taurocholate uptake into ASBT-MDCK cells. The class given is cell-based. The note with it: with consideration of cytotoxicity.

The next data set is described as follows: in vitro. The conditions noted are these: dog.

For the molecule `COC(=O)C1=C(C)NC(C)=C(C(=O)OC)C1c1ccccc1[N+](=O)[O-]` [Nifedipine, nifedipine], the “cytotoxicity in MDCK cells (in words)” value in the data set with MDCK cells is listed as “cytotoxic to MDCK cells”. Further, the “ASBT inhibitor” value in data set [1] is listed as “only inhibited ASBT”. The viability in the data set “in vitro” was found to be 67.7%.
